In PMC7819943, “Rice protein-binding microarrays: a tool to detect cis-acting elements near promoter regions in rice”:
This is one part of the list.

The chains behind the UniProt entries cited, without tags or fusion partners.
UniProt Q0JBA9, entry or part of it: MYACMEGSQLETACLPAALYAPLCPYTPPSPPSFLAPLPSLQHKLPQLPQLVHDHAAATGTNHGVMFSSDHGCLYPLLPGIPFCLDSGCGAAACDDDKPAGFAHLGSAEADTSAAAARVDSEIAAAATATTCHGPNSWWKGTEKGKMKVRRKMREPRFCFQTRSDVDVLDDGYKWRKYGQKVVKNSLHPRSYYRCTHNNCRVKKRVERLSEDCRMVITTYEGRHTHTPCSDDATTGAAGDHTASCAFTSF

Target: OsWRKY34 (Oryza sativa, UniProt Q0JBA9 1-250)
Assay: protein-binding microarray (RPBM); PBS, 2% BSA, 51.3 ng/ul salmon testes DNA, 50 uM zinc acetate, 200 nM TF, 25 C, 1 h; high values mean tight binding
Conditions: protein: recombinant; tags: N-terminal polyhistidine and DsRed monomer fusion (pET32a); label: CyDye5-dUTP incorporated in the synthesized complementary strand; 3' TTTTT single-stranded linker to array surface; dsDNA, one strand shown
Summary of the method: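 Transcription factors were made in E. coli BL21-CodonPlus as N-terminal fusions to a polyhistidine tag and DsRed, then purified on Ni–NTA. After primer extension with Cy5-dUTP and blocking with 2% BSA, a custom Agilent array was exposed for 1 h at 25 °C to 200 nM protein in PBS, 2% BSA, salmon testes DNA and 50 µM zinc acetate. Washed arrays were scanned on an Axon 4000B, and the binding signal is per-feature fluorescence intensity in arbitrary units.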

Row | Sequence | binding signal
1 | CCCAGGCCCATCTCAGCCCAGCCCAGCCCGCAATCATCATCGGAGTCACCTAGTGCAG | 9140 fluorescence intensity (a.u.)
2 | GATAGTGTCCCACGCATGCGTCCACGAGTCCTCGACGCAACGGAGTCACCTAGTGCAG | 9120 fluorescence intensity (a.u.)
3 | TCCAAGTCTTCCGCCTTCGTTGGCCCCACCAGTCAGTGACCGGAGTCACCTAGTGCAG | 9050 fluorescence intensity (a.u.)
4 | ATGTTTGCTTCCAGACTAATATTTCTTTGGAATCTACTCCCGGAGTCACCTAGTGCAG | 8180 fluorescence intensity (a.u.)
5 | ATATTTATTAGTTGGCGTGTATGTAAAACTTGTGTGTTTCCGGAGTCACCTAGTGCAG | 8400 fluorescence intensity (a.u.)
6 | TAAAGGGAGGAGGGGAGATGGGCAGTGGCGGCTAGGGTTTCGGAGTCACCTAGTGCAG | 8730 fluorescence intensity (a.u.)
7 | GATCTCGAATTCTCTCGTCTCCAATCGCTGCAGATTTCCACGGAGTCACCTAGTGCAG | 16200 fluorescence intensity (a.u.)
8 | ACCTGGCCGAGTTCCTGAAGATATCGTGATTATTACTCACCGGAGTCACCTAGTGCAG | 8260 fluorescence intensity (a.u.)
9 | ATTATTTTCCTATCATTTGATTCATTGTTAAATATACTTTCGGAGTCACCTAGTGCAG | 8840 fluorescence intensity (a.u.)
10 | CTCTCTGCCTCTTGCAGATGCTGTTGCTCTCACCCTGACACGGAGTCACCTAGTGCAG | 9250 fluorescence intensity (a.u.)
11 | TCGAGGGAAGGGGATTGGGAGTTTACACGAGGGAATTGATCGGAGTCACCTAGTGCAG | 12300 fluorescence intensity (a.u.)
12 | TCCATCGCAGCCGCTCCAGCCAACGCCGCAGTACTTGCCACGGAGTCACCTAGTGCAG | 8360 fluorescence intensity (a.u.)
13 | TATTCGGCTTTCGCGTCGCTGTCCGCCTCCATCGCCGCCGCGGAGTCACCTAGTGCAG | 9360 fluorescence intensity (a.u.)
14 | ACGAGTTGACGACGACCCACTTGCGGCCACTTTCCTTCACCGGAGTCACCTAGTGCAG | 10300 fluorescence intensity (a.u.)
15 | GCCGGATCATCCTCTTCCCTGCTGCCAATGGCGGCCGCCGCGGAGTCACCTAGTGCAG | 8740 fluorescence intensity (a.u.)
16 | CATCTCCATTGATCACCTTGTTGTCTCAGCTGCATTATCCCGGAGTCACCTAGTGCAG | 8130 fluorescence intensity (a.u.)
17 | GATGTGTGGGGTGTAGGTGTGATCGATCGAGGGACGACAACGGAGTCACCTAGTGCAG | 9030 fluorescence intensity (a.u.)
18 | AACAAGACGAATGGTCAAACATGTTTAAAAAAGTCAACGGCGGAGTCACCTAGTGCAG | 15700 fluorescence intensity (a.u.)
19 | AGGTACGCACGCGCGGTGGAGGAGGAGGAGGAGGAGGAGGCGGAGTCACCTAGTGCAG | 10900 fluorescence intensity (a.u.)
20 | ATGGTCCTTGATGCTTCTTGTACTTAATTTCTTTTAAATTCGGAGTCACCTAGTGCAG | 8610 fluorescence intensity (a.u.)
21 | TGGGGATGTGTTGTGGTGAGCTGGAAAGTGCAAACTGGTTCGGAGTCACCTAGTGCAG | 9630 fluorescence intensity (a.u.)

Some of the entries so far, with each value named.
GATAGTGTCCCACGCATGCGTCCACGAGTCCTCGACGCAACGGAGTCACCTAGTGCAG
  binding signal: 9120 fluorescence intensity (a.u.)
TAAAGGGAGGAGGGGAGATGGGCAGTGGCGGCTAGGGTTTCGGAGTCACCTAGTGCAG
  binding signal: 8730 fluorescence intensity (a.u.)
TGGGGATGTGTTGTGGTGAGCTGGAAAGTGCAAACTGGTTCGGAGTCACCTAGTGCAG
  binding signal: 9630 fluorescence intensity (a.u.)

Additional results:

Row | Sequence | binding signal
22 | ACTGTTTCACCACACTCGTGTTTTTTTACTGTTTCACTTACGGAGTCACCTAGTGCAG | 11100 fluorescence intensity (a.u.)
23 | TCCTCAAAGCATCATCAGGTCCATTTCATTTGCACATCCACGGAGTCACCTAGTGCAG | 8180 fluorescence intensity (a.u.)
24 | GTCAGTCACACTTGCAATAGGTTCTCATCACCTGTCTCAACGGAGTCACCTAGTGCAG | 8780 fluorescence intensity (a.u.)
25 | CTTTATAAATCATTCGAATACGAGTCTCATAACATTTTTACGGAGTCACCTAGTGCAG | 10100 fluorescence intensity (a.u.)
26 | GTATTTTTCCTGTGTTTTGCAATCCTTTGTTTTACACTTACGGAGTCACCTAGTGCAG | 8660 fluorescence intensity (a.u.)
27 | CGACACGCCGCCTCCACCTGTATCCCTCAATCACCGATTCCGGAGTCACCTAGTGCAG | 8210 fluorescence intensity (a.u.)
28 | ATCCGCCCTACTACATCCGTGCACCATCTTTCCCTTTCAGCGGAGTCACCTAGTGCAG | 8840 fluorescence intensity (a.u.)
29 | TGCTGCTACTACATGTGGTGTGGGTGGTATGGTAGGGCCCCGGAGTCACCTAGTGCAG | 9060 fluorescence intensity (a.u.)
30 | ACTATCTGTGTTGTTGAGTTCTTGCGCGTGCGTGCGTCACCGGAGTCACCTAGTGCAG | 8260 fluorescence intensity (a.u.)
31 | ACCATGGACCGTTGGCCACTGGAGCATTCTACCATGGTCTCGGAGTCACCTAGTGCAG | 8480 fluorescence intensity (a.u.)
32 | GTGTGCTGTGTGTGGTCTGAGATGATGTGTACTGCTGCTACGGAGTCACCTAGTGCAG | 9510 fluorescence intensity (a.u.)
33 | GTTTTGTTTTGTAACTTTTGATTGCTTACGTTTTTTCTCTCGGAGTCACCTAGTGCAG | 8620 fluorescence intensity (a.u.)
34 | TGGTTCCGCTGCTGCTGTTGTTGTTGGTGTTTCCTCGTCCCGGAGTCACCTAGTGCAG | 9340 fluorescence intensity (a.u.)
35 | GGTAGACGGCGTCGTACCCGTCCTCCTCGCCGGACCGCATCGGAGTCACCTAGTGCAG | 8840 fluorescence intensity (a.u.)
36 | GGCTGAGCTAATTTCGCCTTGCTTTGGTTTTTGTTTTTAGCGGAGTCACCTAGTGCAG | 12600 fluorescence intensity (a.u.)
37 | CTCGCAAGCCATGCTCTCGTCACACTCGCCGCTGCCGCTCCGGAGTCACCTAGTGCAG | 9850 fluorescence intensity (a.u.)
38 | CGGAGGGTAGAGTGCGTCATTGCGAACCTTTGGGGATTAACGGAGTCACCTAGTGCAG | 9240 fluorescence intensity (a.u.)
39 | CTAGCCGGTCAGACCGCCCACACACCTGTGGTCTGACCGGCGGAGTCACCTAGTGCAG | 9500 fluorescence intensity (a.u.)
40 | TCATATCATTACTTGTACGTTTATACCTTGTGTTACTTTTCGGAGTCACCTAGTGCAG | 8490 fluorescence intensity (a.u.)
41 | CGTTGCCTCGCCTAAACCCATCACCCCACGCCACCACCTCCGGAGTCACCTAGTGCAG | 11200 fluorescence intensity (a.u.)
42 | TGGTGTTGTTCAGTCCGACTTCTCAAAATCGCGAAATTCTCGGAGTCACCTAGTGCAG | 10300 fluorescence intensity (a.u.)
